Measured values published in publication PMC9018197.
No constants are given. Whether binding was seen depends on the method and setting. In cells and extracts the contact can be indirect. A yes stands for co-enrichment or nearness to the bait. Other partners may have been found.

The chains behind the UniProt entries cited, without tags or fusion partners.
UniProt P15927: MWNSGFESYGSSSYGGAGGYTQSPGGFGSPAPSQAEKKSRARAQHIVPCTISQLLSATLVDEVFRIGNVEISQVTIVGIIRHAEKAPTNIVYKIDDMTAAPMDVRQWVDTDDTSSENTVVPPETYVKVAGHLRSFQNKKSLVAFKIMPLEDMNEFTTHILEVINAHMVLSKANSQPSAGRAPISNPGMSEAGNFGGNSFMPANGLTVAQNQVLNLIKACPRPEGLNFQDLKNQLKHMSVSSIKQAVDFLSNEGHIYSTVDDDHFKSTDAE

Biological target: Beclin1 (human (endogenous in HaCaT)) (UniProt Q14457)
Assay: affinity purification with mass spectrometry; HaCaT lysate precipitated with anti-Beclin1 antibody, eluted at pH 2.0; label-free quantitative proteomics and parallel reaction monitoring (PRM); cells with or without 100 mM trehalose for 24 hours

binding	Molecule
binds	RPA32 (RPA2) (from UniProt P15927 1-270)
binds	tissue inhibitor of metalloproteinase (TIMP) 3 (protein, UniProt P35625 24-211) CTCSPSHPQDAFCNSDIVIRAKVVGKKLVKEGPFGTLVYTIKQMKMYRGFTKMPHVQYIHTEASESLCGLKLEVNKYQYLLTGRVYDGKMYTGLCNFVERWDQLTLSQRKGLNYRYHLGCNCKIKSCYYLPCFVTSKNECLWTDMLSNFGYPGYQSKHYACIRQKGGYCSWYRGWAPPDKSIINATDP
